Experimental data taken from publication PMC11257983 (2024).
Substitutions are numbered along the chain they refer to. No constants are given. Whether binding was seen depends on the method and setting. In cells and extracts the contact can be indirect. Some binding calls cover weakened binding; strength is not graded here. Where a sequence is shown, tags or fusion partners need not be part of it.

Sequences of proteins named here, by UniProt entry; tags and fusion partners are left off.
UniProt Q24324: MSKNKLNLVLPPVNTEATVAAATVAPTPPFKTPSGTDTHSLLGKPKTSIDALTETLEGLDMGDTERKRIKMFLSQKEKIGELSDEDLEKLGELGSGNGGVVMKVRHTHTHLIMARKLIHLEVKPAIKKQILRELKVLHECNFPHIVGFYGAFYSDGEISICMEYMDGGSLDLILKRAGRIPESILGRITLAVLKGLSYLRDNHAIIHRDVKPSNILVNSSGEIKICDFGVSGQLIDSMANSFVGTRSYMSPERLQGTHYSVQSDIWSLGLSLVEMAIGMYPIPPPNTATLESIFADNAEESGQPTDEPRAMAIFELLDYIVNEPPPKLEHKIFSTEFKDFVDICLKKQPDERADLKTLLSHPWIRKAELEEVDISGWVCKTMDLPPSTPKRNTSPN

Assays:
[1] = target: T1, Flag-CNK^2–549 Q200A (Drosophila) (UniProt Q7KNQ9); test: pull-down; GST-HYP as bait, CNK, KSR and MEK variants co-expressed in S2 cells (Fig. 2c,d; Extended Data Fig. 7e); total lysates, overnight at 4 °C; immunoblot
T1 sequence: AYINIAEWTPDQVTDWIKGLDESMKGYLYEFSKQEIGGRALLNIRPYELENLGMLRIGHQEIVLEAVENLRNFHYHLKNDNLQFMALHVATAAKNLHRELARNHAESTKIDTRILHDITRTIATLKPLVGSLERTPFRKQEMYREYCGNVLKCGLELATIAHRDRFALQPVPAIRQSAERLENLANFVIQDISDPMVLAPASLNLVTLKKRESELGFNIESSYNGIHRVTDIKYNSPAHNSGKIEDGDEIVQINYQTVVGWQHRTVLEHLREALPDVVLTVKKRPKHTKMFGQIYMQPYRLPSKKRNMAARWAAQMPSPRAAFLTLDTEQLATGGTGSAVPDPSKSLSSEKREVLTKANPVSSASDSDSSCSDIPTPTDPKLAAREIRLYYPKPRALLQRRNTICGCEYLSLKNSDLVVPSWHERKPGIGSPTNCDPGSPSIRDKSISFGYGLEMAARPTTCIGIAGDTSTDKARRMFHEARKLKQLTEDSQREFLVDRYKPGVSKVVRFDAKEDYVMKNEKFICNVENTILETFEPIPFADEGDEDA

[2] = target: T2, Flag-CNK^2–549 (Drosophila) (UniProt Q7KNQ9); test: as above
T2 sequence: T1 sequence with A199Q

V5-KSR (Drosophila) = target: T3, V5-KSR (Drosophila) (UniProt Q24171); test: co-IP; anti-V5 immunoprecipitation of V5-KSR from S2 total lysates, protein A/G agarose, overnight at 4 °C; MEK blotted; without or with co-expressed CNK^2–549–HYP
T3 sequence: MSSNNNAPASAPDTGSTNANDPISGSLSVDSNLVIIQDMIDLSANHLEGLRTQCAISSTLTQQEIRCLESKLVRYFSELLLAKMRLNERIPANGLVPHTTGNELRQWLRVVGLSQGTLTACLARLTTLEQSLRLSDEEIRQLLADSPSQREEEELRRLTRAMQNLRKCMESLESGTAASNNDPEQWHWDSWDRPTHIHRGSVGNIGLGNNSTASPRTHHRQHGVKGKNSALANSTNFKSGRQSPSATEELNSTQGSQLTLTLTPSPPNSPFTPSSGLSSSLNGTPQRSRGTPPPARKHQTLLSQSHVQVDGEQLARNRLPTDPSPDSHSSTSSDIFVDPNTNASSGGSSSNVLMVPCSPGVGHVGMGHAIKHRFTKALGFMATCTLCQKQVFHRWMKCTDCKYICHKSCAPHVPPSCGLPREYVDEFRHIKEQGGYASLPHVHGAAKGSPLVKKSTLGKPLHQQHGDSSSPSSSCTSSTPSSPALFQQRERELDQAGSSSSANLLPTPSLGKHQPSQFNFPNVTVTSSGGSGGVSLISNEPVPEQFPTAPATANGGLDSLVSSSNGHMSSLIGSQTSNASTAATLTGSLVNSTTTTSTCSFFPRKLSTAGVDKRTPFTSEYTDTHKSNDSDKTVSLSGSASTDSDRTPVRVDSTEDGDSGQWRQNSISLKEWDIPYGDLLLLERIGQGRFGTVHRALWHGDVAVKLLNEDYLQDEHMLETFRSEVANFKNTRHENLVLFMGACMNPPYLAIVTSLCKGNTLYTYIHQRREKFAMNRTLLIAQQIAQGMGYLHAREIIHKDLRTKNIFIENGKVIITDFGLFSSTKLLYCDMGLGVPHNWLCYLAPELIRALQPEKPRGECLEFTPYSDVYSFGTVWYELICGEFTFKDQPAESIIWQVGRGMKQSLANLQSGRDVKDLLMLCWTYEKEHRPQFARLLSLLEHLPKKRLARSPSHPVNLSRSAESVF

[3] = target: T2, Flag-CNK^2–549 (Drosophila); test: pull-down; GST-HYP as bait, CNK^2–549 co-expressed in S2 cells with Ha-RAS^V12, Pyo-RAF, V5-KSR and Myc-MEK (RRKM); total lysates, overnight at 4 °C; immunoblot

Measured: binding

Myc-MEK (from UniProt Q24324 1-396)
binds: [1] | [2] | V5-KSR (Drosophila) | [3]
